From the supplement of paper PMC11438910
The other results are listed elsewhere or left out. The signal is at background level for most entries.

How the values were obtained:
Assay in all cases: fluorescence intensity of antibody binding to polysaccharide-coupled beads; higher = stronger binding
[1] = molecular target: pneumococcal polysaccharide Pn11F
[2] = molecular target: pneumococcal polysaccharide Pn12A
[3] = molecular target: pneumococcal polysaccharide Pn12B
[4] = molecular target: pneumococcal polysaccharide Pn12F
[5] = molecular target: pneumococcal polysaccharide Pn13
[6] = molecular target: pneumococcal polysaccharide Pn14
[7] = molecular target: pneumococcal polysaccharide Pn15A
[8] = molecular target: pneumococcal polysaccharide Pn15B
[9] = molecular target: pneumococcal polysaccharide Pn15C
[10] = molecular target: pneumococcal polysaccharide Pn15F
[11] = molecular target: pneumococcal polysaccharide Pn16A
[12] = molecular target: pneumococcal polysaccharide Pn16F
[13] = molecular target: pneumococcal polysaccharide Pn17A
[14] = molecular target: pneumococcal polysaccharide Pn17F
[15] = molecular target: pneumococcal polysaccharide Pn18A
[16] = molecular target: pneumococcal polysaccharide Pn18B
[17] = molecular target: pneumococcal polysaccharide Pn18C
[18] = molecular target: pneumococcal polysaccharide Pn18F
[19] = molecular target: pneumococcal polysaccharide Pn19A
[20] = molecular target: pneumococcal polysaccharide Pn19B
[21] = molecular target: pneumococcal polysaccharide Pn19C
[22] = molecular target: pneumococcal polysaccharide Pn19F
[23] = molecular target: pneumococcal polysaccharide Pn2
[24] = antibody concentration 2.8593 ng/mL
[25] = antibody concentration 15.2894 ng/mL
[26] = antibody concentration 81.7561 ng/mL
[27] = antibody concentration 437.17 ng/mL
[28] = antibody concentration 2337.65 ng/mL
[29] = antibody concentration 12500 ng/mL
[30] = antibody concentration 0.1 ng/mL
[31] = antibody concentration 0.534724 ng/mL

B1: 4-99.2 (protein)
chain 1: QVQLQESGPGLVKPSETLSLTCAVSGYSIRSAYEWGWIRQPPGKGLEYIGYISGESGNTYYSPSLKSRVTISRDTSKNQFSLRLSSVTAADSAVYYCARRGQLIGFDFWGQGVLVTVSS
chain 2: QAAPTQPPSVSGSPGQSVTISCTGTSSDIGYYNAVSWYQHLPGKAPKLMIYEVSKRPSGVSDRFSGSKSGNTASLTISGLQAEDEADYYCSSYAGSNTYIFGAGTRLTVL
- fluorescence intensity [1, 24]: 13.2 MFI
- fluorescence intensity [1, 25]: 14.2 MFI
- fluorescence intensity [1, 26]: 10.5 MFI
- fluorescence intensity [1, 27]: 14.5 MFI
- fluorescence intensity [1, 28]: 15.2 MFI
- fluorescence intensity [1, 29]: 20 MFI
- fluorescence intensity [2, 30]: 15 MFI
- fluorescence intensity [2, 31]: 14.8 MFI
- fluorescence intensity [2, 24]: 15 MFI
- fluorescence intensity [2, 25]: 15.5 MFI
- fluorescence intensity [2, 26]: 15 MFI
- fluorescence intensity [2, 27]: 15.5 MFI
- fluorescence intensity [2, 28]: 16.8 MFI
- fluorescence intensity [2, 29]: 27.5 MFI
- fluorescence intensity [3, 30]: 14.5 MFI
- fluorescence intensity [3, 31]: 14.5 MFI
- fluorescence intensity [3, 24]: 16.5 MFI
- fluorescence intensity [3, 25]: 13.5 MFI
- fluorescence intensity [3, 26]: 13.8 MFI
- fluorescence intensity [3, 27]: 16.2 MFI
- fluorescence intensity [3, 28]: 17.2 MFI
- fluorescence intensity [3, 29]: 26.8 MFI
- fluorescence intensity [4, 30]: 17.5 MFI
- fluorescence intensity [4, 31]: 16.5 MFI
- fluorescence intensity [4, 24]: 19.5 MFI
- fluorescence intensity [4, 25]: 18 MFI
- fluorescence intensity [4, 26]: 18 MFI
- fluorescence intensity [4, 27]: 20.5 MFI
- fluorescence intensity [4, 28]: 21.5 MFI
- fluorescence intensity [4, 29]: 29.5 MFI
- fluorescence intensity [5, 30]: 18.2 MFI
- fluorescence intensity [5, 31]: 17.5 MFI
- fluorescence intensity [5, 24]: 19.2 MFI
- fluorescence intensity [5, 25]: 18 MFI
- fluorescence intensity [5, 26]: 18.5 MFI
- fluorescence intensity [5, 27]: 19 MFI
- fluorescence intensity [5, 28]: 19.5 MFI
- fluorescence intensity [5, 29]: 26.5 MFI
- fluorescence intensity [6, 30]: 14.5 MFI
- fluorescence intensity [6, 31]: 14.5 MFI
- fluorescence intensity [6, 24]: 13.8 MFI
- fluorescence intensity [6, 25]: 13.5 MFI
- fluorescence intensity [6, 26]: 14 MFI
- fluorescence intensity [6, 27]: 16 MFI
- fluorescence intensity [6, 28]: 20 MFI
- fluorescence intensity [6, 29]: 51.2 MFI
- fluorescence intensity [7, 30]: 12 MFI
- fluorescence intensity [7, 31]: 11.8 MFI
- fluorescence intensity [7, 24]: 12.2 MFI
- fluorescence intensity [7, 25]: 12.5 MFI
- fluorescence intensity [7, 26]: 12 MFI
- fluorescence intensity [7, 27]: 12.5 MFI
- fluorescence intensity [7, 28]: 12.5 MFI
- fluorescence intensity [7, 29]: 16.5 MFI
- fluorescence intensity [8, 30]: 18.5 MFI
- fluorescence intensity [8, 31]: 18.5 MFI
- fluorescence intensity [8, 24]: 16.2 MFI
- fluorescence intensity [8, 25]: 18 MFI
- fluorescence intensity [8, 26]: 18.5 MFI
- fluorescence intensity [8, 27]: 18.5 MFI
- fluorescence intensity [8, 28]: 22 MFI
- fluorescence intensity [8, 29]: 27 MFI
- fluorescence intensity [9, 30]: 16.2 MFI
- fluorescence intensity [9, 31]: 17.5 MFI
- fluorescence intensity [9, 24]: 15.5 MFI
- fluorescence intensity [9, 25]: 15.8 MFI
- fluorescence intensity [9, 26]: 15 MFI
- fluorescence intensity [9, 27]: 16.5 MFI
- fluorescence intensity [9, 28]: 19.5 MFI
- fluorescence intensity [9, 29]: 22.5 MFI
- fluorescence intensity [10, 30]: 16.5 MFI
- fluorescence intensity [10, 31]: 16.5 MFI
- fluorescence intensity [10, 24]: 16.5 MFI
- fluorescence intensity [10, 25]: 16.5 MFI
- fluorescence intensity [10, 26]: 18.5 MFI
- fluorescence intensity [10, 27]: 16.5 MFI
- fluorescence intensity [10, 28]: 18.5 MFI
- fluorescence intensity [10, 29]: 25.2 MFI
- fluorescence intensity [11, 30]: 15.2 MFI
- fluorescence intensity [11, 31]: 15.5 MFI
- fluorescence intensity [11, 24]: 13.5 MFI
- fluorescence intensity [11, 25]: 12.8 MFI
- fluorescence intensity [11, 26]: 13.5 MFI
- fluorescence intensity [11, 27]: 14.2 MFI
- fluorescence intensity [11, 28]: 17.8 MFI
- fluorescence intensity [11, 29]: 20.5 MFI
- fluorescence intensity [12, 30]: 22 MFI
- fluorescence intensity [12, 31]: 22 MFI
- fluorescence intensity [12, 24]: 24.5 MFI
- fluorescence intensity [12, 25]: 20 MFI
- fluorescence intensity [12, 26]: 22.8 MFI
- fluorescence intensity [12, 27]: 25 MFI
- fluorescence intensity [12, 28]: 25.5 MFI
- fluorescence intensity [12, 29]: 32 MFI
- fluorescence intensity [13, 30]: 20 MFI
- fluorescence intensity [13, 31]: 20.8 MFI
- fluorescence intensity [13, 24]: 20.5 MFI
- fluorescence intensity [13, 25]: 19.5 MFI
- fluorescence intensity [13, 26]: 21 MFI
- fluorescence intensity [13, 27]: 18.5 MFI
- fluorescence intensity [13, 28]: 20 MFI
- fluorescence intensity [13, 29]: 23.8 MFI
- fluorescence intensity [14, 30]: 25 MFI
- fluorescence intensity [14, 31]: 25.5 MFI
- fluorescence intensity [14, 24]: 25 MFI
- fluorescence intensity [14, 25]: 24.5 MFI
- fluorescence intensity [14, 26]: 22.8 MFI
- fluorescence intensity [14, 27]: 27.8 MFI
- fluorescence intensity [14, 28]: 26.5 MFI
- fluorescence intensity [14, 29]: 29.5 MFI
- fluorescence intensity [15, 30]: 22.5 MFI
- fluorescence intensity [15, 31]: 21.8 MFI
- fluorescence intensity [15, 24]: 24 MFI
- fluorescence intensity [15, 25]: 23.8 MFI
- fluorescence intensity [15, 26]: 20.8 MFI
- fluorescence intensity [15, 27]: 23 MFI
- fluorescence intensity [15, 28]: 24.2 MFI
- fluorescence intensity [15, 29]: 28.8 MFI
- fluorescence intensity [16, 30]: 29.5 MFI
- fluorescence intensity [16, 31]: 29 MFI
- fluorescence intensity [16, 24]: 30.5 MFI
- fluorescence intensity [16, 25]: 28.5 MFI
- fluorescence intensity [16, 26]: 31.5 MFI
- fluorescence intensity [16, 27]: 32 MFI
- fluorescence intensity [16, 28]: 28 MFI
- fluorescence intensity [16, 29]: 36.5 MFI
- fluorescence intensity [17, 30]: 17.5 MFI
- fluorescence intensity [17, 31]: 18.5 MFI
- fluorescence intensity [17, 24]: 18 MFI
- fluorescence intensity [17, 25]: 17.2 MFI
- fluorescence intensity [17, 26]: 17 MFI
- fluorescence intensity [17, 27]: 18.2 MFI
- fluorescence intensity [17, 28]: 20.5 MFI
- fluorescence intensity [17, 29]: 30.2 MFI
- fluorescence intensity [18, 30]: 20.5 MFI
- fluorescence intensity [18, 31]: 23 MFI
- fluorescence intensity [18, 24]: 21.5 MFI
- fluorescence intensity [18, 25]: 20.5 MFI
- fluorescence intensity [18, 26]: 20.8 MFI
- fluorescence intensity [18, 27]: 23.2 MFI
- fluorescence intensity [18, 28]: 24.5 MFI
- fluorescence intensity [18, 29]: 32 MFI
- fluorescence intensity [19, 30]: 17 MFI
- fluorescence intensity [19, 31]: 17.5 MFI
- fluorescence intensity [19, 24]: 18 MFI
- fluorescence intensity [19, 25]: 18 MFI
- fluorescence intensity [19, 26]: 17.5 MFI
- fluorescence intensity [19, 27]: 19.8 MFI
- fluorescence intensity [19, 28]: 19.5 MFI
- fluorescence intensity [19, 29]: 24.5 MFI
- fluorescence intensity [20, 30]: 28 MFI
- fluorescence intensity [20, 31]: 31 MFI
- fluorescence intensity [20, 24]: 30.5 MFI
- fluorescence intensity [20, 25]: 31 MFI
- fluorescence intensity [20, 26]: 30 MFI
- fluorescence intensity [20, 27]: 30.2 MFI
- fluorescence intensity [20, 28]: 36 MFI
- fluorescence intensity [20, 29]: 77.2 MFI
- fluorescence intensity [21, 30]: 26.2 MFI
- fluorescence intensity [21, 31]: 25.5 MFI
- fluorescence intensity [21, 24]: 23 MFI
- fluorescence intensity [21, 25]: 26.5 MFI
- fluorescence intensity [21, 26]: 29 MFI
- fluorescence intensity [21, 27]: 27 MFI
- fluorescence intensity [21, 28]: 31.2 MFI
- fluorescence intensity [21, 29]: 56.2 MFI
- fluorescence intensity [22, 30]: 24.5 MFI
- fluorescence intensity [22, 31]: 25 MFI
- fluorescence intensity [22, 24]: 23.5 MFI
- fluorescence intensity [22, 25]: 23.5 MFI
- fluorescence intensity [22, 26]: 24 MFI
- fluorescence intensity [22, 27]: 24 MFI
- fluorescence intensity [22, 28]: 26 MFI
- fluorescence intensity [22, 29]: 39.5 MFI
- fluorescence intensity [23, 30]: 17.5 MFI
- fluorescence intensity [23, 31]: 19 MFI
- fluorescence intensity [23, 24]: 18.2 MFI
- fluorescence intensity [23, 25]: 18 MFI
- fluorescence intensity [23, 26]: 17.5 MFI
- fluorescence intensity [23, 27]: 19.5 MFI
